From patent US20190309014 (published 2019)

Assay: general procedure: solution-phase peptide synthesis; EDAC.HCl/HOBt, N-methylmorpholine
Conditions: acetate

Row | Substance | step yield (coupling step) [%] | crude HPLC purity (coupling step) [%] | crude HPLC purity (late stage modification step) [%] | step yield (late stage modification step) [%] | other results
1 | Boc-D-Arg(Pbf)-Arg(Pbf)-Pro-Hyp-Gly-Thia-Ser(O-tBu)-D-Tic-Oic-Arg(Pbf)-O-tBu | 50 |  |  |  | final HPLC purity (coupling step): 92%
2 | Fmoc-Hyp-Gly-Thia-Ser(O-tBu)-D-Tic-Oic-Arg(Pbf)-O-tBu | 85.23 | 89 |  |  | 
3 | Fmoc-Thia-Ser(O-tBu)-D-Tic-Oic-Arg(Pbf)-O-tBu | 96.95 | 86.0 |  |  | 
4 | Fmoc-Thia-Ser(O-tBu)-D-Tic-Oic-OAll | 87.33 | 85 |  |  | 
5 | Fmoc-Thia-Ser(O-tBu)-D-Tic-Oic-OH |  |  | 85.0 | 83.85 | 
6 | H-Hyp-Gly-Thia-Ser(O-tBu)-D-Tic-Oic-Arg(Pbf)-O-tBu |  |  | 76 | 72.86 | 
7 | H-Thia-Ser(O-tBu)-D-Tic-Oic-Arg(Pbf)-OtBu |  |  | 82 | 87.33 | 
8 | Icatibant acetate |  |  |  | 35 | final HPLC purity (late stage modification step): 99.8%
